{"source": "PubChem BioAssay AID602362", "about": "(National Center for Advancing Translational Sciences (NCATS), 2012)", "note": "These results got no clear call from the source, so the numbers are uncertain. Calls come from the whole dose curve; as a rule, active = well fitted inhibition curve with a large enough effect; inconclusive = small, poorly fitted or top-dose-only effect; inactive = no such curve, though single readings can be large or run the other way. Potencies beside an inconclusive call are fits to weak or partial responses and may not hold up.", "data": [{"molecular_target": "4'-phosphopantetheinyl transferase Sfp (Bacillus subtilis (strain 168)) (UniProt P39135)", "assay": "qHTS Assay for Inhibitors of Bacillus subtilis Sfp phosphopantetheinyl transferase (PPTase): Gel Based Assay", "conditions": "purified Sfp PPTase, gel-based product detection", "source_text": "The covalent attachment of a phosphopantetheinyl (4'-PP) arm to a variety of synthases and other proteins is a key posttranslational protein modification. The 4'-PP is installed on the proteins post-translationally from coenzyme A (CoA) on a conserved serine residue by action of phosphopantetheinyl transferase (PPTase) enzymes. Phosphopantetheinylation is essential for synthase activity, and removal of the PPTase gene precludes natural product synthesis in microorganisms, or in the case of fatty acid biosynthesis, renders the organism unviable. PPTase enzymes belong to a distinct structural superfamily. Within bacteria, these enzymes are grouped into two classes based upon primary structure, the AcpS-Type and Sfp-Type PPTases. […]\nIn search of small molecule Sfp-PPTase inhibitors, a fluorescence quenching assay was developed for detection of Bacillus subtilis Sfp-PPTase enzymatic activity in a miniaturized high-throughput format. […]\nIn this assay, compounds were evaluated by monitoring of fluorescence transfer to whole carrier protein substrates via polyacrylamide gel electrophoresis. […]\nThe SDS-PAGE based assay detects the direct incorporation of a fluorescent label into a carrier protein substrate. […] The images are analysed by fluorescent densometry using the ImageJ software package available from the NIH.", "values": [{"smiles": "COc1ccnc(NC(=S)N2CCN(c3cccc(Cl)c3Cl)CC2)c1", "Potency": "inconclusive: 7.58 µM [inhibitor, full curve]"}, {"smiles": "Cc1ccnc(NC(=S)Nc2cccc(C(F)(F)F)c2)c1", "Potency": "inconclusive: 0.0269 µM [inhibitor, full curve, poor fit]"}]}]}
